Data as given in PubChem BioAssay AID686943 (Drosophila RNAi Screening Center, 2013)
The screen tested about 23,000 reagents; this is an unselected part of those that have a named target and a result. 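Extra replicates exist only for a retested subset of genes; insulin dose and duration not given; both raised and lowered dpERK matter.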 Not stated in the record: the amount of reagent, the time to read-out.

- Purpose: 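Search across the genome for regulators of signalling from receptor tyrosine kinase to ERK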 (primary screen)
- Cell system: Drosophila S2R+ haemocyte-like cells expressing YFP-tagged ERK (Rolled)
- Reagent: long dsRNA against Drosophila genes
- Treatment: insulin stimulation versus unstimulated cells; dose and duration not given
- Measurement: 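Per-plate z-scores of phospho-ERK immunostaining normalised to YFP-tagged ERK, measured with and without insulin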
- Reading the numbers: replicate 1, z-score of dpERK with insulin and replicate 2, z-score of dpERK with insulin: higher = more active ERK per ERK-YFP after insulin; replicate 1, z-score of dpERK under basal conditions: higher = more basal active ERK per ERK-YFP; replicate 1, z-score of ERK-YFP with insulin: higher = more YFP-tagged ERK signal

no.	predicted target	DRSC id	replicate 1, z-score of dpERK with insulin	replicate 2, z-score of dpERK with insulin	replicate 1, z-score of dpERK under basal conditions	replicate 1, z-score of ERK-YFP with insulin
1	Cals	DRSC17196	1.82	0.3	-0.5	0.18
2	Cals	DRSC21661	-0.53	0	0.16	1.5
3	CG9215	DRSC20171	-1.83	-2.69	-0.02	0.71
4	CG43315	DRSC06296	1.24	0.37	0.22	-0.39
5	CG34417	DRSC17467	-0.59	-0.5	-0.58	0.04
6	CG34417	DRSC18332	0.55	0.35		0.08
7	CG34417	DRSC18333	-0.1	-1.07	0.22	-0.17
8	CG33784	DRSC12764	1.21	0.15	0.2	0.13
9	obe	DRSC15736	-0.43	0.01	1.34	0.78
10	CG44098	DRSC12214	0.66	0.92	0.4	0.27
11	CG44098	DRSC12240	0.89	-0.17	1.7	-4.78
12	CG44098	DRSC12327	0.14	0.75	-0.17	0.32
13	CG2065	DRSC06813	0.47	-0.23	0.06	1.05
14	CG2065	DRSC21328	0.72	1.14	0.1	1.4
15	CG6138	DRSC02933	0.01	-0.29	-0.47	-0.28
16	run	DRSC20584	-0.09	0.27	-0.18	-0.21
17	run	DRSC21515	0.28	0.51	0.16	-0.71
18	Lsm12a	DRSC19702	-0.43	0.09	-1.16	0.52
19	vri	DRSC03633	-0.95	-3.08	-1.46	-1.35
20	CG11617	DRSC00321	-0.45	0.19	1.23	0.44
21	CG11617	DRSC21786	-0.46	-0.62	-0.88	-0.94
22	mRpS26	DRSC10823	-0.98	-0.38	-0.63	1.75
23	Agpat3	DRSC10445	0.73	0.42	-0.31	-0.23
24	PIG-A	DRSC06982	-0.17	0.09	-0.03	-0.06
25	slv	DRSC07685	0.42	0.26	-0.4	0.08
26	CR18228	DRSC15317	-0.88	-0.21	1.8	0.28
27	CG12942	DRSC06253	-0.1	-0.02	-0.87	0.35
28	Rab11	DRSC16809	-1.3	-1.71	0.31	0.63
29	ZnT86D	DRSC16091	0.42	0.2	-1.08	0.29
30	Syx18	DRSC14628	1.68	-0.09	7.88	0.15
31	CG1894	DRSC15396	0.44	0.01	-0.29	0.13
32	Prosbeta4	DRSC02603	-1.42	-3.06	-1.85	1.24
33	mwh	DRSC07949	-0.66	-0.64	-0.33	1.24
34	mwh	DRSC08382	-0.48	0.07	1.02	-0.52
35	gt	DRSC18782	-3.29	-1.74	-1.88	2.14
36	CG15651	DRSC04242	0.61	0.54	-0.09	-1.02
37	CG13862	DRSC14712	0.86	-0.14	0.5	0.2
38	Ten-a	DRSC18924	0.54	0.11	-0.76	0.29
39	Ten-a	DRSC19496	-3.97	-2.52	-2.45	-3.16
40	Ten-a	DRSC19700	0.11	-0.24	-0.48	0.56
41	Ten-a	DRSC19793	1.28	0.83	0.59	0.42
42	Ten-a	DRSC19864	0.31	-0.11	-0.27	0.09
43	Ten-a	DRSC19865	0.4	0.18	0.87	0.29
44	Ten-a	DRSC20290	0.43	0.85	-0.67	0.66
45	Ten-a	DRSC21461	0.22	0.35	-0.95	1.6

Single entries from above:
CG12942 [DRSC06253], replicate 1, z-score of dpERK with insulin = -0.1
Cals [DRSC21661], replicate 1, z-score of dpERK with insulin: -0.53
Value of gt [DRSC18782] under “replicate 1, z-score of ERK-YFP with insulin”: 2.14
Under “replicate 1, z-score of dpERK under basal conditions”, CG2065 [DRSC21328] shows 0.1
